At least one structure is not confirmed: it was looked up by name or label, or the drawing left a doubt.
System: HCV NS5B polymerase 1a-H77-C316Y
Format: biochemical, HCV genotype 1a
Conditions: ratio of enzyme IC50s, 1a H77-C316Y / 1a H77
Method: Purified HCV NS5B polymerase enzymes were used for polymerase inhibition assays. All recombinant HCV polymerases contained the first 570 amino acids of the 591 amino acid native protein sequence and a six-histidine tag at the N-terminus or C-terminus to facilitate purification by affinity chromatography. The DNA nucleotide sequence for the HCV polymerase 1b BK strain was codon optimized for expression in E. coli. A synthetic gene was prepared from a series of overlapping oligonucleotides that were filled in using a DNA polymerase and amplified by PCR. The patient isolate HCV polymerases were cloned by RT-PCR methods using HCV RNA extracted from the serum of infected subjects obtained from ProMedDx and BioCollections (genotypes 2a, 2b, 3a, and 4a). Laboratory strains were cloned from plasmid DNA (1a-H77 or 1a-H77-C316Y) or from existing replicon cells (1b Rice). […]
The reaction was initiated by the addition of 20 μM CTP, 20 μM ATP, 0.284 μM (0.5 μCi) of 5,6-[^3H] […] After drying thoroughly in air, 30 μL of Microscint-20 scintillation cocktail (Perkin Elmer) was added to each well, and the retained cpm were determined by scintillation counting. IC50 values were determined by nonlinear regression. […]

## CC(C)CCN(c1cc2oc(-c3ccc(F)cc3)c(C3=NOCCN3)c2cc1C1CC1)S(C)(=O)=O [Example 10, N-[5-cyclopropyl-3-(5,6-dihydro-4H-1,2,4-oxadiazin-3-yl)-2-(4-fluorophenyl)-1-benzofuran-6-yl]-N-(3-methylbutyl)methanesulfonamide]
  C316Y/1a Fold Resistance: 9 fold

From patent US20160355530A1, “HEPATITIS C INHIBITORS AND USES THEREOF” (AbbVie Inc., priority 2010, published 2016)
